Reference: PubChem BioAssay AID504764 (Drosophila RNAi Screening Center, 2011)

Aim: 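Genome-wide screen for regulators of Notch-driven gene expression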 (primary screen)
Cells: Drosophila Kc167 cells
Reagent: long dsRNA against Drosophila genes
Time to read-out: about 5 days (4 days dsRNA, then 24 h after transfection)
Conditions: transfection of constitutively active membrane-tethered Notch lacking the extracellular domain, read 24 h later
Measured: 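Light from a Notch-responsive E(spl)m3 luciferase reporter under active Notch, with control-promoter and no-Notch reporter wells to normalise; raw counts from paired wells a and b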
Direction: induced reporter light, run 1, well a and induced reporter light, run 1, well b: higher = more light from the Notch target reporter with active Notch; control promoter light, run 1, well a and control promoter light, run 1, well b: higher = more light from the viral control promoter (cell number, transfection, viability); uninduced reporter light, run 1, well a: higher = more light from the Notch target reporter without active Notch
Hit rule: 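Hit if the duplicate-averaged log2 ratio of induced to control-promoter light gives a plate-wise z beyond ±2, or induced to uninduced beyond ±1.8; weak-control or discordant-duplicate wells dropped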
Calls: active = modifier hit (raised or lowered Notch signal); inactive = not a hit
In all, the deposit lists about 22,000 reagents; below is an unselected part of those with a known target gene and a result. In the full data, 403 (1.9%) were called active. 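Unnormalised raw counts per well; ratio z-scores behind the hit calls and whether each hit raises or lowers signal are not deposited.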 The numbers tell different reagents against one gene apart. Names joined by + are all predicted targets of the reagent. The record does not give: the amount of reagent.

| Gene | reagent no. | induced reporter light, run 1, well a | induced reporter light, run 1, well b | control promoter light, run 1, well a | control promoter light, run 1, well b | uninduced reporter light, run 1, well a | Outcome |
| --- | --- | --- | --- | --- | --- | --- | --- |
| Rpt6 (Regulatory particle triple-A ATPase 6) | 1 | 1.35e5 | 1.14e5 | 1.01e5 | 57645 | 9255 | inactive |
| CG17154 | 1 | 1.45e5 | 1.26e5 | 1.54e5 | 1.19e5 | 8682 | inactive |
| ValRS-m (Valyl-tRNA synthetase, mitochondrial) | 1 | 2.23e5 | 1.87e5 | 2.89e5 | 2.45e5 | 12750 | inactive |
| geko | 1 | 2.09e5 | 1.70e5 | 2.64e5 | 1.75e5 | 8990 | inactive |
| geko | 2 | 1.62e5 | 2.13e5 | 2.31e5 | 1.95e5 | 8360 | inactive |
| CG15676 | 1 | 46705 | 59970 | 41125 | 49350 | 2530 | inactive |
| udt (undicht) | 1 | 1.48e5 | 1.53e5 | 2.07e5 | 2.12e5 | 14355 | inactive |
| LysX (Lysozyme X) | 1 | 72235 | 1.34e5 | 1.99e5 | 2.47e5 | 4810 | active |
| CG13784 | 1 | 1.71e5 | 1.83e5 | 2.34e5 | 2.20e5 | 13500 | inactive |
| CG13784 | 2 | 73140 | 96770 | 39615 | 34015 | 14365 | inactive |
| esn (espinas) | 1 | 35495 | 42300 | 69880 | 55770 | 1910 | inactive |
| esn (espinas) | 2 | 1.67e5 | 1.72e5 | 2.29e5 | 1.95e5 | 14930 | inactive |
| CG12362 | 1 | 2.41e5 | 1.43e5 | 3.42e5 | 2.43e5 | 6615 | inactive |
| CG4612 | 1 | 1.43e5 | 1.62e5 | 1.57e5 | 1.93e5 | 13265 | inactive |
| CG13775 | 1 | 1.31e5 | 1.12e5 | 1.72e5 | 1.85e5 | 8332 | inactive |
| CG12395 | 1 | 97260 | 77175 | 92610 | 75110 | 8610 | inactive |
| Etl1 | 1 | 1.90e5 | 2.10e5 | 2.21e5 | 1.96e5 | 20460 | inactive |
| dpr14 (defective proboscis extension response 14) | 1 | 2.18e5 | 1.62e5 | 2.75e5 | 2.64e5 | 14295 | inactive |
| sha (shavenoid) | 1 | 96465 | 97770 | 1.38e5 | 1.45e5 | 10710 | inactive |
| Cbp20 (cap binding protein 20) | 1 | 2.17e5 | 1.94e5 | 1.55e5 | 1.31e5 | 12805 | active |
| CG3687 | 1 | 48530 | 39980 | 28870 | 40140 | 3080 | inactive |
| Lcp4 (Larval cuticle protein 4) | 1 | 1.56e5 | 1.43e5 | 1.92e5 | 1.90e5 | 13505 | inactive |
| Tom70 (Translocase of outer membrane 70) | 1 | 1.30e5 | 1.53e5 | 1.62e5 | 1.76e5 | 11275 | inactive |
| Tgi (Tondu-domain-containing Growth Inhibitor) | 1 | 85155 | 96285 | 1.28e5 | 93890 | 5880 | inactive |
| Tgi (Tondu-domain-containing Growth Inhibitor) | 2 | 89840 | 86480 | 1.26e5 | 85660 | 6845 | inactive |
| CG9106 | 1 | 1.52e5 | 1.39e5 | 2.24e5 | 2.13e5 | 11315 | inactive |
| PXo (P[[i]]-sensitive XPR1 orthologue) | 1 | 91980 | 69970 | 80265 | 25840 | 9015 | inactive |
| Eig71Ed (Ecdysone-induced gene 71Ed) | 1 | 1.76e5 | 1.64e5 | 2.46e5 | 2.29e5 | 4510 | inactive |
| Ask1 (Apoptotic signal-regulating kinase 1) | 1 | 1.76e5 | 1.62e5 | 1.66e5 | 1.71e5 | 13700 | inactive |
| CG6138 | 1 | 1.65e5 | 2.04e5 | 93640 | 1.14e5 | 21182 | inactive |
| CG6484 | 1 | 84480 | 92510 | 1.65e5 | 1.83e5 | 9250 | inactive |
| CG13398 | 1 | 1.40e5 | 1.83e5 | 99160 | 1.13e5 | 23150 | inactive |
| CG8870 | 1 | 2.26e5 | 2.75e5 | 2.20e5 | 2.41e5 | 16700 | inactive |
| flz (filzig) | 1 | 2.31e5 | 2.16e5 | 2.34e5 | 2.06e5 | 18985 | inactive |
| CoRest | 1 | 1.20e5 | 1.06e5 | 93375 | 54325 | 10315 | inactive |
| ATP7 | 1 | 1.22e5 | 1.17e5 | 2.24e5 | 1.57e5 | 8970 | inactive |
| CG17999 | 1 | 1.79e5 | 1.67e5 | 1.83e5 | 1.93e5 | 14310 | inactive |
| CG10211 | 1 | 1.22e5 | 1.24e5 | 1.90e5 | 86105 | 16475 | inactive |
| CG15617 | 1 | 1.69e5 | 85610 | 1.12e5 | 1.62e5 | 14690 | inactive |
| Osi4 (Osiris 4) | 1 | 57270 | 66855 | 76160 | 57025 | 4570 | inactive |
| CG42671 | 1 | 48055 | 43725 | 28080 | 24275 | 9500 | inactive |
| CG42671 | 2 | 1.18e5 | 1.17e5 | 2.17e5 | 1.73e5 | 7260 | inactive |
| CG15544 | 1 | 1.08e5 | 1.03e5 | 1.66e5 | 1.60e5 | 9895 | inactive |
| CG18190 | 1 | 1.65e5 | 1.24e5 | 1.45e5 | 1.60e5 | 10265 | inactive |
| CG10068 | 1 | 1.24e5 | 1.10e5 | 85085 | 82710 | 7785 | inactive |
| Sas-6 (Spindle assembly abnormal 6) | 1 | 1.39e5 | 1.48e5 | 2.18e5 | 1.84e5 | 10535 | inactive |
| lncRNA:CR32658 (long non-coding RNA:CR32658) | 1 | 1.06e5 | 1.05e5 | 1.24e5 | 1.33e5 | 6960 | inactive |
| CG18281 | 1 | 1.22e5 | 1.44e5 | 75520 | 82335 | 8685 | inactive |
| Rab9Db + Rab9D + Rab9Fa + 1 more | 1 | 65240 | 70035 | 84810 | 61620 | 5655 | inactive |
| CG7607 | 1 | 1.27e5 | 1.34e5 | 2.62e5 | 1.64e5 | 7985 | inactive |
| Flad1 (Flavin adenine dinucleotide synthetase 1) | 1 | 1.79e5 | 1.75e5 | 1.93e5 | 2.39e5 | 15895 | inactive |
| Cyp49a1 (Cytochrome P450 49a1) | 1 | 2.23e5 | 1.97e5 | 3.48e5 | 3.09e5 | 24755 | inactive |
| Cyp49a1 (Cytochrome P450 49a1) | 2 | 2.42e5 | 2.33e5 | 2.96e5 | 2.58e5 | 18950 | inactive |
| CG14591 | 1 | 1.51e5 | 1.26e5 | 1.86e5 | 1.63e5 | 7920 | active |
| CG1927 | 1 | 73955 | 69980 | 95980 | 1.00e5 | 4895 | inactive |
| corn (cornetto) | 1 | 92745 | 1.03e5 | 85090 | 34280 | 10920 | inactive |
| corn (cornetto) | 2 | – | – | – | – | – | inactive |
| CG31999 | 1 | 1.10e5 | 1.00e5 | 1.92e5 | 1.73e5 | 9075 | inactive |
| CG31999 | 2 | 1.30e5 | 1.19e5 | 1.70e5 | 2.32e5 | 10800 | inactive |
| Miga (Mitoguardin) | 1 | 1.22e5 | 1.27e5 | 2.50e5 | 2.10e5 | 11320 | inactive |
| trx (trithorax) | 1 | 57500 | 47735 | 42760 | 37155 | 5340 | inactive |
| CG31816 | 1 | 55600 | 72600 | 66160 | 62825 | 6435 | inactive |
| CG13226 | 1 | 1.05e5 | 99825 | 1.43e5 | 1.15e5 | 6565 | inactive |
| PCNA2 (Proliferating cell nuclear antigen 2) | 1 | 23415 | 26625 | 28405 | 26710 | 1770 | inactive |

Reformatted: results already given
{"Gene": "CG1927", "reagent no.": 1, "induced reporter light, run 1, well a": 73955, "induced reporter light, run 1, well b": 69980, "control promoter light, run 1, well a": 95980, "control promoter light, run 1, well b": 1.00e5, "uninduced reporter light, run 1, well a": 4895, "Outcome": "inactive"}
{"Gene": "corn (cornetto)", "reagent no.": 1, "induced reporter light, run 1, well a": 92745, "induced reporter light, run 1, well b": 1.03e5, "control promoter light, run 1, well a": 85090, "control promoter light, run 1, well b": 34280, "uninduced reporter light, run 1, well a": 10920, "Outcome": "inactive"}
{"Gene": "corn (cornetto)", "reagent no.": 2, "Outcome": "inactive"}
{"Gene": "CG31999", "reagent no.": 1, "induced reporter light, run 1, well a": 1.10e5, "induced reporter light, run 1, well b": 1.00e5, "control promoter light, run 1, well a": 1.92e5, "control promoter light, run 1, well b": 1.73e5, "uninduced reporter light, run 1, well a": 9075, "Outcome": "inactive"}
{"Gene": "CG31999", "reagent no.": 2, "induced reporter light, run 1, well a": 1.30e5, "induced reporter light, run 1, well b": 1.19e5, "control promoter light, run 1, well a": 1.70e5, "control promoter light, run 1, well b": 2.32e5, "uninduced reporter light, run 1, well a": 10800, "Outcome": "inactive"}
{"Gene": "Miga (Mitoguardin)", "reagent no.": 1, "induced reporter light, run 1, well a": 1.22e5, "induced reporter light, run 1, well b": 1.27e5, "control promoter light, run 1, well a": 2.50e5, "control promoter light, run 1, well b": 2.10e5, "uninduced reporter light, run 1, well a": 11320, "Outcome": "inactive"}
{"Gene": "trx (trithorax)", "reagent no.": 1, "induced reporter light, run 1, well a": 57500, "induced reporter light, run 1, well b": 47735, "control promoter light, run 1, well a": 42760, "control promoter light, run 1, well b": 37155, "uninduced reporter light, run 1, well a": 5340, "Outcome": "inactive"}
{"Gene": "CG31816", "reagent no.": 1, "induced reporter light, run 1, well a": 55600, "induced reporter light, run 1, well b": 72600, "control promoter light, run 1, well a": 66160, "control promoter light, run 1, well b": 62825, "uninduced reporter light, run 1, well a": 6435, "Outcome": "inactive"}
